# PubChem BioAssay AID1259424 – University of Nebraska Medical Center – 2018
# Assay: 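Find knockdowns that reproduce the expression shifts seen after KSR1 loss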 (primary screen)
# Cell system: human HCT116 colon cancer cells
# Reagents: siRNA pool against human genes, 50 nM
# Measurement: 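Six signature mRNAs by branched-DNA multiplex assay, scaled to two housekeeping genes and non-targeting median, log2; matched to mean KSR1 knockdown profile by Pearson correlation and euclidean distance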
# Reading the numbers: mean correlation with KSR1 profile and KSR1 correlation: higher = expression change more like KSR1 knockdown; mean distance from KSR1 profile: higher = expression change less like KSR1 knockdown
# Here is one part, drawn at random, of about 14,000 reagents. 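Higher correlation or smaller distance means closer resemblance to KSR1 loss; control wells, including KSR1 knockdowns, recur on many plates.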 The numbers tell different reagents against one gene apart. Some reagents were tested in more than one well and are listed for each. The record does not give: the time to read-out.
target,pool no.,mean correlation with KSR1 profile,mean distance from KSR1 profile,"KSR1 correlation, replicate 1","KSR1 correlation, replicate 2","KSR1 correlation, replicate 3"
PKM (pyruvate kinase M1/2),1,0.617,3.3,0.681,0.678,0.557
MAGED2 (MAGE family member D2),1,-0.474,1.9,-0.0753,-0.54,-0.645
UNKL (unk like zinc finger),1,0.57,1.22,0.71,0.286,0.553
UNKL (unk like zinc finger),2,-0.22,2.1,-0.179,-0.336,-0.241
CKS1B (CDC28 protein kinase regulatory subunit 1B),1,0.81,1.13,0.867,0.687,0.553
TXNIP (thioredoxin interacting protein),1,0.426,1.73,0.476,0.409,0.503
NRTN (neurturin),1,-0.0505,1.48,0.239,-0.0655,-0.448
BCL10 (BCL10 immune signaling adaptor),1,-0.406,2.34,-0.253,-0.547,-0.407
RETNLB (resistin like beta),1,0.578,2.04,0.591,0.571,0.356
PRRG2 (proline rich and Gla domain 2),1,-0.305,1.47,-0.316,0.673,-0.414
NDUFB11 (NADH:ubiquinone oxidoreductase subunit B11),1,-0.564,1.42,-0.532,-0.505,-0.65
WDR83OS (WD repeat domain 83 opposite strand),1,-0.194,2.35,-0.338,-0.239,-0.227
ARL6IP1 (ARL6 interacting reticulophagy regulator 1),1,0.145,1.48,0.387,0.069,0.00569
CFAP97 (cilia and flagella associated protein 97),1,-0.366,2.61,-0.208,-0.176,-0.536
NXPH4 (neurexophilin 4),1,0.144,2.52,0.253,0.0523,0.258
SUGT1 (SGT1 assembly cochaperone of MIS12 kinetochore complex),1,-0.544,3.69,-0.0575,-0.762,-0.562
PLIN3 (perilipin 3),1,-0.273,2.93,0.00487,-0.178,-0.59
HOMEZ (homeobox and leucine zipper encoding),1,0.382,1.79,0.278,0.426,0.196
RPS16 (ribosomal protein S16),1,-0.222,2.24,-0.395,0.0907,-0.276
"CFC1 (cryptic, EGF-CFC family member 1)",1,0.423,1.5,0.405,0.427,0.288
OPN5 (opsin 5),1,0.708,1.6,0.667,0.797,0.625
STON2 (stonin 2),1,0.342,2.76,0.192,0.436,0.133
CUL1 (cullin 1),1,-0.23,1.78,-0.0361,-0.408,-0.377
CT55 (cancer/testis antigen 55),1,-0.598,1.47,-0.413,-0.789,-0.726
NUTF2 (nuclear transport factor 2),1,-0.523,2.08,-0.223,-0.694,-0.695
CYP1A1 (cytochrome P450 family 1 subfamily A member 1),1,-0.691,3.28,-0.678,-0.729,-0.73
JPT1 (Jupiter microtubule associated homolog 1),1,-0.284,1.18,-0.87,0.316,0.0733
JPT1 (Jupiter microtubule associated homolog 1),1,-0.344,1.32,-0.478,-0.369,0.0659
PDE4C (phosphodiesterase 4C),1,-0.492,2.69,-0.365,-0.566,-0.569
LAMA4 (laminin subunit alpha 4),1,-0.183,4.81,-0.0364,-0.287,-0.251
OMD (osteomodulin),1,-0.274,1.61,-0.65,-0.107,-0.0205
ACTR3 (actin related protein 3),1,0.283,1.62,0.0526,0.325,0.421
CSN1S1 (casein alpha s1),1,-0.714,2.3,-0.81,-0.35,-0.591
LTB (lymphotoxin beta),1,0.0456,1.94,0.175,-0.16,0.0956
ELOVL4 (ELOVL fatty acid elongase 4),1,-0.433,3.32,-0.165,0.305,-0.846
GAGE2C (G antigen 2C),1,-0.184,3.01,-0.213,-0.141,-0.241
ACER3 (alkaline ceramidase 3),1,-0.708,2.22,-0.825,-0.684,-0.758
USP53 (ubiquitin specific peptidase 53),1,-0.402,1.57,-0.411,-0.482,-0.225
UACA,1,-0.659,1.57,-0.803,-0.78,-0.598
ALDH18A1 (aldehyde dehydrogenase 18 family member A1),1,0.808,1.47,0.812,0.82,0.774
CDC42EP1 (CDC42 effector protein 1),1,-0.54,2.98,-0.571,-0.611,-0.535
OSBP (oxysterol binding protein),1,0.456,1.59,0.233,0.256,0.575
ENY2 (ENY2 transcription and export complex 2 subunit),1,0.481,1.79,0.836,0.37,0.0765
GLB1L (galactosidase beta 1 like),1,0.376,1.96,0.429,0.333,0.396
NPR2 (natriuretic peptide receptor 2),1,0.5,1.4,0.437,0.592,0.631
NPR2 (natriuretic peptide receptor 2),1,-0.1,2.06,0.0594,-0.0633,-0.122
IFI35 (interferon induced protein 35),1,0.685,2.02,0.668,0.63,0.758
IRF7 (interferon regulatory factor 7),1,-0.45,2.81,-0.0255,-0.389,-0.51
ADAM18 (ADAM metallopeptidase domain 18),1,-0.118,2.78,-0.15,0.0508,0.0057
CBLIF (cobalamin binding intrinsic factor),1,-0.315,1.77,-0.431,-0.313,-0.39

5 entries from above in another layout.
| target | pool no. | mean correlation with KSR1 profile | mean distance from KSR1 profile | KSR1 correlation, replicate 1 | KSR1 correlation, replicate 2 | KSR1 correlation, replicate 3 |
| --- | --- | --- | --- | --- | --- | --- |
| ACER3 (alkaline ceramidase 3) | 1 | -0.708 | 2.22 | -0.825 | -0.684 | -0.758 |
| USP53 (ubiquitin specific peptidase 53) | 1 | -0.402 | 1.57 | -0.411 | -0.482 | -0.225 |
| UACA | 1 | -0.659 | 1.57 | -0.803 | -0.78 | -0.598 |
| ALDH18A1 (aldehyde dehydrogenase 18 family member A1) | 1 | 0.808 | 1.47 | 0.812 | 0.82 | 0.774 |
| CDC42EP1 (CDC42 effector protein 1) | 1 | -0.54 | 2.98 | -0.571 | -0.611 | -0.535 |
